Measurements taken from PMC6632053, “Incorporation of Putative Helix-Breaking Amino Acids in the Design of Novel Stapled Peptides: Exploring Biophysical and Cellular Permeability Properties” (Molecules, 2019).
Bridge positions count the residues as written; N and C are the ends. Square brackets hold non-standard residues; d marks the D form. Peptide text beside a SMILES is read from it. Lys(N3) = [N-]=[N+]=NCCCC[C@H](N)C(=O)O; R8 = C=CCCCCCC[C@@](C)(N)C(=O)O; Cba = N[C@@H](CC1CCC1)C(=O)O; S5 = C=CCCC[C@](C)(N)C(=O)O; Aib = CC(C)(N)C(=O)O; βAla = NCCC(=O)O

Test system: p53 responsive β-lactamase reporter in HCT116 cells
Experiment: p53 beta-lactamase reporter gene cellular functional assay
Format: cell-based
Details: Table 1; cellular EC50/Mdm2 Kd
Procedure: HCT116 cells were stably transfected with a p53 responsive β-lactamase reporter and were seeded into a 384-well plate at a density of 8000 cells per well. Cells were maintained in McCoy’s 5A Medium with 10% fetal bovine serum (FBS), Blasticidin, and Penicillin/Streptomycin. The cells were incubated overnight, followed by removal of cell growth media and replacement with Opti-MEM either containing 0% FBS or 10% FBS. […] The final working concentration of DMSO was 0.5%. β-lactamase activity was detected using the ToxBLAzer Dual Screen (Invitrogen), as per the manufacturer’s instructions. Measurements were made using the Envision multiplate reader (Perkin–Elmer).

Row | SMILES | Ratio (fold-shift between the binding affinity and cellular activity)
1 | CC(=O)N[C@@H](CC(C)C)C(=O)N[C@H](C(=O)N[C@@H](Cc1ccccc1)C(=O)NC(C)(C)C(=O)N[C@H](CCC(=O)O)C(=O)N[C@@H](Cc1ccc(O)cc1)C(=O)N[C@@H](Cc1c[nH]c2ccccc12)C(=O)N[C@@H](CCC(N)=O)C(=O)N[C@@H](CC(C)C)C(=O)N[C@@H](CC1CCC1)C(=O)NC(C)(C)C(=O)N[C@@H](CO)C(=O)N[C@@H](C)C(=O)N[C@@H](C)C(N)=O)[C@@H](C)O [Linear E5(D-Glu)] | >370
2 | CC(=O)N[C@H](CC(C)C)C(=O)N[C@H](C(=O)N[C@@H](Cc1ccccc1)C(=O)NC(C)(C)C(=O)N[C@@H](CCC(=O)O)C(=O)N[C@@H](Cc1ccc(O)cc1)C(=O)N[C@@H](Cc1c[nH]c2ccccc12)C(=O)N[C@@H](CCC(N)=O)C(=O)N[C@@H](CC(C)C)C(=O)N[C@@H](CC1CCC1)C(=O)NC(C)(C)C(=O)N[C@@H](CO)C(=O)N[C@@H](C)C(=O)N[C@@H](C)C(N)=O)[C@@H](C)O [Linear L1(D-Leu)] | >180
3 | CC(=O)N[C@@H](CC(C)C)C(=O)N[C@H](C(=O)N[C@@H](Cc1ccccc1)C(=O)NC(C)(C)C(=O)N[C@@H](CCC(=O)O)C(=O)N[C@@H](Cc1ccc(O)cc1)C(=O)N[C@@H](Cc1c[nH]c2ccccc12)C(=O)N[C@@H](CCC(N)=O)C(=O)N[C@H](CC(C)C)C(=O)N[C@@H](CC1CCC1)C(=O)NC(C)(C)C(=O)N[C@@H](CO)C(=O)N[C@@H](C)C(=O)N[C@@H](C)C(N)=O)[C@@H](C)O [Linear L9(D-Leu)] | >568
4 | CC(=O)N[C@@H](CC(C)C)C(=O)N[C@H](C(=O)N[C@@H](Cc1ccccc1)C(=O)NC(C)(C)C(=O)N[C@@H](CCC(=O)O)C(=O)N[C@@H](Cc1ccc(O)cc1)C(=O)N[C@@H](Cc1c[nH]c2ccccc12)C(=O)N[C@@H](CCC(N)=O)C(=O)N[C@@H](CC(C)C)C(=O)N[C@@H](CC1CCC1)C(=O)NC(C)(C)C(=O)N[C@@H](CO)C(=O)N[C@@H](C)C(=O)N[C@@H](C)C(N)=O)[C@@H](C)O [Linear Parent (MP-189), Ac–Leu–Thr–Phe–Aib–Glu–Tyr–Trp–Gln–Leu–Cba–Aib–Ser–Ala–Ala–NH2] | 777
5 | CC(=O)N[C@@H](CC(C)C)C(=O)N[C@H](C(=O)N[C@@H](Cc1ccccc1)C(=O)N[C@]1(C)CCCCCCC=CCCC[C@@](C)(C(=O)N[C@@H](CO)C(=O)N[C@@H](C)C(=O)N[C@@H](C)C(N)=O)NC(=O)[C@H](CC2CCC2)NC(=O)[C@H](CC(C)C)NC(=O)[C@H](CCC(N)=O)NC(=O)[C@H](Cc2c[nH]c3ccccc23)NC(=O)[C@H](Cc2ccc(O)cc2)NC(=O)[C@H](C)NC1=O)[C@@H](C)O [Peptide E5A] (Ac-LTF[R8]AYWQL[Cba][S5]SAA-NH2; staple 4-11) | 6
6 | CC(=O)N[C@@H](CC(C)C)C(=O)N[C@H](C(=O)N[C@@H](C)C(=O)N[C@]1(C)CCCCCCC=CCCC[C@@](C)(C(=O)N[C@@H](CO)C(=O)N[C@@H](C)C(=O)N[C@@H](C)C(N)=O)NC(=O)[C@H](CC2CCC2)NC(=O)[C@H](CC(C)C)NC(=O)[C@H](CCC(N)=O)NC(=O)[C@H](Cc2c[nH]c3ccccc23)NC(=O)[C@H](Cc2ccc(O)cc2)NC(=O)[C@H](CCC(=O)O)NC1=O)[C@@H](C)O [Peptide F3A] (Ac-LTA[R8]EYWQL[Cba][S5]SAA-NH2; staple 4-11) | 10
7 | CC(=O)N[C@@H](C)C(=O)N[C@H](C(=O)N[C@@H](Cc1ccccc1)C(=O)N[C@]1(C)CCCCCCC=CCCC[C@@](C)(C(=O)N[C@@H](CO)C(=O)N[C@@H](C)C(=O)N[C@@H](C)C(N)=O)NC(=O)[C@H](CC2CCC2)NC(=O)[C@H](CC(C)C)NC(=O)[C@H](CCC(N)=O)NC(=O)[C@H](Cc2c[nH]c3ccccc23)NC(=O)[C@H](Cc2ccc(O)cc2)NC(=O)[C@H](CCC(=O)O)NC1=O)[C@@H](C)O [Peptide L1A] (Ac-ATF[R8]EYWQL[Cba][S5]SAA-NH2; staple 4-11) | 28
8 | CC(=O)N[C@@H](CC(C)C)C(=O)N[C@H](C(=O)N[C@@H](Cc1ccccc1)C(=O)N[C@]1(C)CCCCCCC=CCCC[C@@](C)(C(=O)N[C@@H](CO)C(=O)N[C@@H](C)C(=O)N[C@@H](C)C(N)=O)NC(=O)[C@H](CC2CCC2)NC(=O)[C@H](C)NC(=O)[C@H](CCC(N)=O)NC(=O)[C@H](Cc2c[nH]c3ccccc23)NC(=O)[C@H](Cc2ccc(O)cc2)NC(=O)[C@H](CCC(=O)O)NC1=O)[C@@H](C)O [Peptide L9A] (Ac-LTF[R8]EYWQA[Cba][S5]SAA-NH2; staple 4-11) | 13
9 | CC(=O)N[C@@H](CC(C)C)C(=O)N[C@H](C(=O)N[C@@H](Cc1ccccc1)C(=O)N[C@]1(C)CCCCCCC=CCCC[C@@](C)(C(=O)N[C@@H](CO)C(=O)N[C@@H](C)C(=O)N[C@@H](C)C(N)=O)NC(=O)[C@H](CC2CCC2)NC(=O)[C@H](CC(C)C)NC(=O)[C@H](C)NC(=O)[C@H](Cc2c[nH]c3ccccc23)NC(=O)[C@H](Cc2ccc(O)cc2)NC(=O)[C@H](CCC(=O)O)NC1=O)[C@@H](C)O [Peptide Q8A] | 4

Same assay, conditions: Table 2; cellular EC50/Mdm2 Kd

Row | SMILES | Ratio (fold-shift between the binding affinity and cellular activity)
10 | CC(=O)N[C@@H](CCCCN=[N+]=[N-])C(=O)NCCC(=O)N[C@@H](CC(C)C)C(=O)N[C@H](C(=O)N[C@@H](Cc1ccccc1)C(=O)N[C@]1(C)CCCCCCC=CCCC[C@@](C)(C(=O)N[C@@H](CO)C(=O)N[C@@H](C)C(=O)N[C@@H](C)C(N)=O)NC(=O)[C@H](CC2CCC2)NC(=O)[C@H](CCC(N)=O)NC(=O)[C@H](C)N(C)C(=O)[C@H](Cc2c[nH]c3ccccc23)NC(=O)[C@H](Cc2ccc(O)cc2)NC(=O)[C@H](CCC(=O)O)NC1=O)[C@@H](C)O [A8(N-methyl L-Ala)] | >75
11 | CC(=O)N[C@@H](CCCCN=[N+]=[N-])C(=O)NCCC(=O)N[C@@H](CC(C)C)C(=O)N[C@H](C(=O)N[C@@H](Cc1ccccc1)C(=O)N[C@]1(C)CCCCCCC=CCCC[C@@](C)(C(=O)N[C@@H](C)C(=O)NC(C)(C)C(=O)N[C@@H](C)C(N)=O)NC(=O)[C@H](CC2CCC2)NC(=O)[C@H](CCC(N)=O)NC(=O)[C@H](C)NC(=O)[C@H](Cc2c[nH]c3ccccc23)NC(=O)[C@H](Cc2ccc(O)cc2)NC(=O)[C@H](CCC(=O)O)NC1=O)[C@@H](C)O [A13(Aib)] (Ac-[Lys(N3)][βAla]LTF[R8]EYWAQ[Cba][S5]A[Aib]A-NH2; staple 6-13) | 23
12 | CC(=O)N[C@@H](CCCCN=[N+]=[N-])C(=O)NCCC(=O)N[C@@H](CC(C)C)C(=O)N[C@H](C(=O)N[C@@H](Cc1ccccc1)C(=O)N[C@]1(C)CCCCCCC=CCCC[C@@](C)(C(=O)N[C@@H](CO)C(=O)N(C)[C@@H](C)C(=O)N[C@@H](C)C(N)=O)NC(=O)[C@H](CC2CCC2)NC(=O)[C@H](CCC(N)=O)NC(=O)[C@H](C)NC(=O)[C@H](Cc2c[nH]c3ccccc23)NC(=O)[C@H](Cc2ccc(O)cc2)NC(=O)[C@H](CCC(=O)O)NC1=O)[C@@H](C)O [A13(N-methyl L-Ala)] | 158
13 | CC(=O)N[C@@H](CCCCN=[N+]=[N-])C(=O)NCCC(=O)NCC(=O)N[C@H](C(=O)N[C@@H](Cc1ccccc1)C(=O)N[C@]1(C)CCCCCCC=CCCC[C@@](C)(C(=O)N[C@@H](CO)C(=O)N[C@@H](C)C(=O)N[C@@H](C)C(N)=O)NC(=O)[C@H](CC2CCC2)NC(=O)[C@H](CCC(N)=O)NC(=O)CNC(=O)[C@H](Cc2c[nH]c3ccccc23)NC(=O)[C@H](Cc2ccc(O)cc2)NC(=O)CNC1=O)[C@@H](C)O [L1G, E5G, A8G] (Ac-[Lys(N3)][βAla]GTF[R8]GYWGQ[Cba][S5]SAA-NH2; staple 6-13) | 34
14 | CC(=O)N[C@@H](CCCCN=[N+]=[N-])C(=O)NCCC(=O)N[C@@H](CC(C)C)C(=O)N[C@H](C(=O)N[C@@H](Cc1ccccc1)C(=O)N[C@]1(C)CCCCCCC=CCCC[C@@](C)(C(=O)N[C@@H](CO)C(=O)N[C@@H](C)C(=O)N[C@@H](C)C(N)=O)NC(=O)[C@H](CC2CCC2)NC(=O)[C@H](CCC(N)=O)NC(=O)[C@H](C)NC(=O)[C@H](Cc2c[nH]c3ccccc23)NC(=O)[C@H](Cc2ccc(O)cc2)NC(=O)CNC1=O)[C@@H](C)O [Peptide E5G] | 4
15 | CC(=O)N[C@@H](CCCCN=[N+]=[N-])C(=O)NCCC(=O)NCC(=O)N[C@H](C(=O)N[C@@H](Cc1ccccc1)C(=O)N[C@]1(C)CCCCCCC=CCCC[C@@](C)(C(=O)N[C@@H](CO)C(=O)N[C@@H](C)C(=O)N[C@@H](C)C(N)=O)NC(=O)[C@H](CC2CCC2)NC(=O)[C@H](CCC(N)=O)NC(=O)[C@H](C)NC(=O)[C@H](Cc2c[nH]c3ccccc23)NC(=O)[C@H](Cc2ccc(O)cc2)NC(=O)[C@H](CCC(=O)O)NC1=O)[C@@H](C)O [Peptide L1G] | 73
16 | CC(=O)N[C@@H](CCCCN=[N+]=[N-])C(=O)NCCC(=O)N1CCC[C@H]1C(=O)N[C@H](C(=O)N[C@@H](Cc1ccccc1)C(=O)N[C@]1(C)CCCCCCC=CCCC[C@@](C)(C(=O)N[C@@H](CO)C(=O)N[C@@H](C)C(=O)N[C@@H](C)C(N)=O)NC(=O)[C@H](CC2CCC2)NC(=O)[C@H](CCC(N)=O)NC(=O)[C@H](C)NC(=O)[C@H](Cc2c[nH]c3ccccc23)NC(=O)[C@H](Cc2ccc(O)cc2)NC(=O)[C@H](CCC(=O)O)NC1=O)[C@@H](C)O [Peptide L1P] | 34
17 | CC(=O)N[C@@H](CCCCN=[N+]=[N-])C(=O)NCCC(=O)N[C@@H](CC(C)C)C(=O)N[C@H](C(=O)N[C@@H](Cc1ccccc1)C(=O)N[C@]1(C)CCCCCCC=CCCC[C@@](C)(C(=O)N[C@@H](CO)C(=O)N[C@@H](C)C(=O)N[C@@H](C)C(N)=O)NC(=O)[C@H](CC2CCC2)NC(=O)CNC(=O)[C@H](C)NC(=O)[C@H](Cc2c[nH]c3ccccc23)NC(=O)[C@H](Cc2ccc(O)cc2)NC(=O)[C@H](CCC(=O)O)NC1=O)[C@@H](C)O [Peptide Q9G] | 16
